The values below come from doi:10.1101/2021.08.02.454737.

The chains behind the UniProt entries cited, without tags or fusion partners.
UniProt Q9HAU5: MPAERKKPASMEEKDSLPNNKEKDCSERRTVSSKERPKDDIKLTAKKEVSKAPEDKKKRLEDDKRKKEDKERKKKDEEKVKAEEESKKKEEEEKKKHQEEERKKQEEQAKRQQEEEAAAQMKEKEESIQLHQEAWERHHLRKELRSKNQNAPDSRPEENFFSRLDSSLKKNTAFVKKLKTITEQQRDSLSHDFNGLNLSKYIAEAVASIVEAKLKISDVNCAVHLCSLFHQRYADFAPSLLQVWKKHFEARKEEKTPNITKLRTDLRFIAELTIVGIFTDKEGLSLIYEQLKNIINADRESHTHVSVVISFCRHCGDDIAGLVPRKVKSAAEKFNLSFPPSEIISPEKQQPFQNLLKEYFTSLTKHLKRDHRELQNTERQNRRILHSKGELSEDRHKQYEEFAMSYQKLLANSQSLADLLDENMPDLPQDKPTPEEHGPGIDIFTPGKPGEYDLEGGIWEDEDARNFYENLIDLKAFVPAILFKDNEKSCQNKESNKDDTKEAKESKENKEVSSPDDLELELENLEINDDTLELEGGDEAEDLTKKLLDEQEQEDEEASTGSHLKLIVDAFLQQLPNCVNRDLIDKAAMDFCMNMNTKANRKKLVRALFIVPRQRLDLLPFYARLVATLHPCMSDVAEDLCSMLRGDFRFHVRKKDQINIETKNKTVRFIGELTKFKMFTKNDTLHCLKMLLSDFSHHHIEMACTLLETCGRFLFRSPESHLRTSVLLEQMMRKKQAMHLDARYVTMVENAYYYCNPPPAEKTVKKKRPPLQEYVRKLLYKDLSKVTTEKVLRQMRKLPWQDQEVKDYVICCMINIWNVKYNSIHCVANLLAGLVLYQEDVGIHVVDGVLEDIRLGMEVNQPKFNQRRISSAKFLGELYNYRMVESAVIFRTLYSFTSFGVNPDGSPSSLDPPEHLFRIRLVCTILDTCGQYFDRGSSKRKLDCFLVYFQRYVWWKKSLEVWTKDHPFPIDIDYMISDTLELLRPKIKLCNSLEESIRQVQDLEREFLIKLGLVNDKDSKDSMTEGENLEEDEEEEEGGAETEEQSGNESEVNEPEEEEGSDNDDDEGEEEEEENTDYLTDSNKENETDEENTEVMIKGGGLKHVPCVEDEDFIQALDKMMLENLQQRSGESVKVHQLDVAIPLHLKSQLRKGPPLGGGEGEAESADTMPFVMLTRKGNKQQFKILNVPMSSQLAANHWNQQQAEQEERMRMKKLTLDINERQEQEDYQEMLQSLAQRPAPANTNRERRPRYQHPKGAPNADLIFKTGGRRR
UniProt P04406: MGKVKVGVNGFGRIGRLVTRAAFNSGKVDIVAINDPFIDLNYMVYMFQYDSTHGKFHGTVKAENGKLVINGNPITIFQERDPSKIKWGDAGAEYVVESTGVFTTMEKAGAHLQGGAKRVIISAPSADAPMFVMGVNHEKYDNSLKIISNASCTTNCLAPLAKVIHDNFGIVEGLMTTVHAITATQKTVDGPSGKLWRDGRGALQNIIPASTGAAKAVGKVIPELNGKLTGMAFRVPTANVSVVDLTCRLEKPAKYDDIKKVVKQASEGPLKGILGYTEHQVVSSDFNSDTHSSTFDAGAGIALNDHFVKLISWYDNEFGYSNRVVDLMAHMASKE
UniProt Q86US8: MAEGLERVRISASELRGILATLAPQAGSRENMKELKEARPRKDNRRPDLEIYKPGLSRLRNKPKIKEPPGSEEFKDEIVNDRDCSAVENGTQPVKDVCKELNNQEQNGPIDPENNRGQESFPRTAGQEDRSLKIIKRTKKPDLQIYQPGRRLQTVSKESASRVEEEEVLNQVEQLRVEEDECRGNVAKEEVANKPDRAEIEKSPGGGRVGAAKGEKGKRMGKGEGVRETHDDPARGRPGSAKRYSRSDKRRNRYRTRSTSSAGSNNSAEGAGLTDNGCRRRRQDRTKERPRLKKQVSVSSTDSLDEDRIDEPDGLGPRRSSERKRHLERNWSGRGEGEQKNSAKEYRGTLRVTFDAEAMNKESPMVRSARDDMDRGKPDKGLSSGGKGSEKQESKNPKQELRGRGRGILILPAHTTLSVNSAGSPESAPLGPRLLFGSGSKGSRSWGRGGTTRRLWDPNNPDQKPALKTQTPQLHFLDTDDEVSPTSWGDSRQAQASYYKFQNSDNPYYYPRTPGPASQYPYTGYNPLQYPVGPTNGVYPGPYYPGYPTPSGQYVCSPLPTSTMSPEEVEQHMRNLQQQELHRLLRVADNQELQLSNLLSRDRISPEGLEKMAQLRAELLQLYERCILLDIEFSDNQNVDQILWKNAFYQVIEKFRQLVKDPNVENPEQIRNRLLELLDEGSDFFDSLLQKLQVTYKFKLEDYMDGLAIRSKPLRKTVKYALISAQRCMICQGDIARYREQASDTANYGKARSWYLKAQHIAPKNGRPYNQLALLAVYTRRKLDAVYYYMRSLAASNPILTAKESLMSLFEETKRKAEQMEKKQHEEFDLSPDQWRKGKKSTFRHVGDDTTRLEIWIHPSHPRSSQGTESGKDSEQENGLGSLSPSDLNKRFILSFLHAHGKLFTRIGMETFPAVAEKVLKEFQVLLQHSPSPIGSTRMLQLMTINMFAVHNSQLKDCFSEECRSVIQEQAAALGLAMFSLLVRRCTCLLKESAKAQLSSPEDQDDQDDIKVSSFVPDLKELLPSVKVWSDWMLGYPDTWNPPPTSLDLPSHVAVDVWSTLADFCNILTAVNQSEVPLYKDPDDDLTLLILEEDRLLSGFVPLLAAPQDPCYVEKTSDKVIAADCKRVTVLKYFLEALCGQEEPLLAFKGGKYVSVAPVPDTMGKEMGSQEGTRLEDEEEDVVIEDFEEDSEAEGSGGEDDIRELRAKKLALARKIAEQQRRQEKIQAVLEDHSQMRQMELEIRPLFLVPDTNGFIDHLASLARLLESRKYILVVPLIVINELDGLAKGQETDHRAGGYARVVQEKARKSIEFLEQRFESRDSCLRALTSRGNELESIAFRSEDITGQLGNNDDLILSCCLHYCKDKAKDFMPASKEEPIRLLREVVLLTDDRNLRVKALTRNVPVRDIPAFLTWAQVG

Substitutions are numbered along the chain they refer to. Results are given in words; binding and its absence hold for the method and conditions named. In cells and extracts the contact can be indirect. Some results given as binding are weak or reduced against the parent protein; the word gives no strength. Tags and fused reporters may be left off the sequences shown.

Holding throughout (assay): co-IP
Experiment [1] concerns the target T1, UPF1-GFP LF mutant (L103A, F105A) (human) (UniProt Q92900).
T1 sequence: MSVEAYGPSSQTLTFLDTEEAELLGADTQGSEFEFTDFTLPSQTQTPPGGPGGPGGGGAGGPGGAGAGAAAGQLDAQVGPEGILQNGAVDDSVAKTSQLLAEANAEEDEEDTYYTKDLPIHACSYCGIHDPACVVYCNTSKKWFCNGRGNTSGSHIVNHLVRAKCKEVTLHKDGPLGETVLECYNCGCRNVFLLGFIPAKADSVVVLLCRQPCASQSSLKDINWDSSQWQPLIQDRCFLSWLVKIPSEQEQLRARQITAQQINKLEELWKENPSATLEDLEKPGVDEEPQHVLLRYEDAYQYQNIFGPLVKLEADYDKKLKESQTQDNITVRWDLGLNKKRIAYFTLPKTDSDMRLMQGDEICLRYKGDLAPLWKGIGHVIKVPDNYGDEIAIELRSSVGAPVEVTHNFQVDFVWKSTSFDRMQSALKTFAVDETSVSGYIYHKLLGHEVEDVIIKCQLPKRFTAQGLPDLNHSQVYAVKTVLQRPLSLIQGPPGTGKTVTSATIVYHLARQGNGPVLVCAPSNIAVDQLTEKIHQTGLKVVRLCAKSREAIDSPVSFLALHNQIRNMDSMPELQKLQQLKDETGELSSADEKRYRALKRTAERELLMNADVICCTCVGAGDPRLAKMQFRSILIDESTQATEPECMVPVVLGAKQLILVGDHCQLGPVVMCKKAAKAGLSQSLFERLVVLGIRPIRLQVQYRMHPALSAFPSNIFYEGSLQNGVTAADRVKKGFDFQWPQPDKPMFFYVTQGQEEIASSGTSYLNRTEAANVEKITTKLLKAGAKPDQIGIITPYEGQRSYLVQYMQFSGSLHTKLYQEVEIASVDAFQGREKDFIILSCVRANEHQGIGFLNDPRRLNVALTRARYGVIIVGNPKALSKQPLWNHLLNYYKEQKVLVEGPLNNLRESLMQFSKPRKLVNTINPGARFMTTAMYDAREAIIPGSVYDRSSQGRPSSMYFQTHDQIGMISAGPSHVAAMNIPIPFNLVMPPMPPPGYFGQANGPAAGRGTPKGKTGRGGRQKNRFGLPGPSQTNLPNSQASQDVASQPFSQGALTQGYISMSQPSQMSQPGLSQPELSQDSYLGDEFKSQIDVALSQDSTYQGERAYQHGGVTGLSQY

Experiment [2] has as its target T2, UPF1-GFP VLLF mutant (V93A, L100A, L103A, F105A) (human) (UniProt Q92900).
T2 sequence: T1 sequence with V93A, L100A

Experiment [3] has as its target T3, UPF1-GFP wild type (UPF1 isoform 2 fused to enhanced GFP) (human) (UniProt Q92900).
T3 sequence: T1 sequence with A103L, A105F

For the substance UPF2 (from UniProt Q9HAU5 1-1272), the binding result in experiment [1], in experiment [2] and in experiment [3] was “binds” throughout.
For the substance GAPDH (from UniProt P04406 1-335), the binding entry in experiment [1], in experiment [2] and in experiment [3] was “no binding” throughout.
On to SMG6 (from UniProt Q86US8 1-1419), for which the binding entry in experiment [1], in experiment [2] and in experiment [3] was “binds” throughout.
